Experimental data published in PubChem BioAssay AID248 (DTP/NCI, 2004).
The list is a part of this screen's results and no random one: it is rich in T/C values a quarter to a half above the control, in often repeated tests (any T/C) and in doses without a T/C. Other doses and runs of a compound stand elsewhere. T/C gives the treated animals as a percentage of the vehicle group. Some entries give survivors of the animals treated and no T/C: the source files T/C as zero there, which appears to mark a toxic dose or a test without result, not a measured value. Some survivor counts are full or nearly so, which does not show that the dose was tolerated: the source hardly ever lists a survival T/C far under the control, and the zero likely stands for such cases as well. Counts of survivors are from the toxicity check (mostly the fifth day) where no day follows; animals may have died later. Schedule codes are those of the source, read here as Q, the interval in days (D) or hours (H), X, the number of doses. Some schedules carry Z or #; the key to these is not given. Where survival is the endpoint, this PubChem deposit counts one and a half times the control or more as active, and values a quarter to a half above the control carry no call in these data; other NCI protocols may use other cut-offs. Some T/C values are followed by the survivors on the day toxicity was checked, most often the fifth; where none is given, no animal had died by that day. Some entries were tested several times; the results are listed from low to high. Counts like (3×) give the number of equal values in this list.

System: L1210 leukemia ip in BDF1 mice, survival T/C
Test: NCI In Vivo Anticancer Drug Screen. Data for tumor model L1210 Leukemia (intraperitoneal) in B6D2F1 (BDF1) mice
Conditions: T/C endpoint: mean survival time, higher T/C = longer survival
[1] = dose: 0.5 mg/kg/injection, schedule: Q01DX010 (ip), vehicle: saline

## CC[C@]1(O)C[C@H]2CN(CCc3c([nH]c4ccccc34)[C@@](C(=O)OC)(c3cc4c(cc3OC)N(C=O)[C@H]3[C@@](O)(C(=O)OC)[C@H](OC(C)=O)[C@]5(CC)C=CCN6CC[C@]43[C@@H]65)C2)C1
dose: 0.03 mg/kg/injection, schedule: Q01DX010 (ip), vehicle: saline
  T/C: 106 (2×), 108, 111 % of control
dose: 0.06 mg/kg/injection, schedule: Q01DX010 (ip), vehicle: saline
  T/C: 113, 115, 116, 120 % of control
dose: 0.1 mg/kg/injection, schedule: Q03HX032 (ip), vehicle: saline
  T/C: 126 % of control
dose: 0.1 mg/kg/injection, schedule: Q## X032 (ip), vehicle: saline
  T/C: 126 % of control
dose: 0.11 mg/kg/injection, schedule: Q01DX009 (ip), vehicle: saline
  T/C: 128 % of control
dose: 0.12 mg/kg/injection, schedule: Q01DX010 (ip), vehicle: saline
  T/C: 120, 130, 132, 134 % of control
dose: 0.15 mg/kg/injection, schedule: Q03HX032 (ip), vehicle: saline
  T/C: 126 % of control
dose: 0.15 mg/kg/injection, schedule: Q## X032 (ip), vehicle: saline
  T/C: 126 % of control
dose: 0.2 mg/kg/injection, schedule: Q01DX015 (ip), vehicle: saline
  T/C: 131 % of control
dose: 0.25 mg/kg/injection, schedule: Q01DX010 (ip), vehicle: saline
  T/C: 103, 113, 137, 138 % of control
dose: 0.25 mg/kg/injection, schedule: Q01DX Z (ip), vehicle: saline
  T/C: 139 % of control
dose: 0.29 mg/kg/injection, schedule: Q04DX002 (ip), vehicle: saline
  T/C: 106, 119 (2×), 123 % of control
dose: 0.3 mg/kg/injection, schedule: Q01DX009 (ip), vehicle: saline
  T/C: 145 % of control
dose: 0.39 mg/kg/injection, schedule: Q04DX003 (ip), vehicle: saline, evaluated on day 30
  T/C: 127 % of control
dose: 0.39 mg/kg/injection, schedule: Q04DX003 (ip), vehicle: saline, evaluated on day 45
  T/C: 113, 115, 120, 123 % of control
dose: 0.4 mg/kg/injection, schedule: Q01DX015 (ip), vehicle: saline
  T/C: 147 % of control
[1]
  T/C: 98 and 105 % of control
  survivor count: 6 of 6
dose: 0.5 mg/kg/injection, schedule: Q01DX Z (ip), vehicle: water
  T/C: 127 % of control
dose: 0.58 mg/kg/injection, schedule: Q04DX002 (ip), vehicle: saline
  T/C: 106, 112, 115, 122 % of control
dose: 0.65 mg/kg/injection, schedule: Q04DX003 (ip), vehicle: saline, evaluated on day 30
  T/C: 136 % of control
dose: 0.65 mg/kg/injection, schedule: Q04DX003 (ip), vehicle: saline, evaluated on day 45
  T/C: 109, 124, 131, 148 % of control
dose: 0.8 mg/kg/injection, schedule: Q01DX005 (ip), vehicle: saline
  survivor count: 5 of 6
dose: 1.0 mg/kg/injection, schedule: Q01DX001 (ip), vehicle: saline
  T/C: 131 % of control
dose: 1.0 mg/kg/injection, schedule: Q01DX Z (ip), vehicle: saline
  survivor count: 5 of 7
dose: 1.0 mg/kg/injection, schedule: Q04DX004 (ip), vehicle: saline
  T/C: 138 % of control
dose: 1.08 mg/kg/injection, schedule: Q04DX003 (ip), vehicle: saline, evaluated on day 30
  T/C: 169 % of control
dose: 1.08 mg/kg/injection, schedule: Q04DX003 (ip), vehicle: saline, evaluated on day 45
  T/C: 113, 127, 151, 163 % of control
dose: 1.15 mg/kg/injection, schedule: Q04DX002 (ip), vehicle: saline
  T/C: 129 % of control
dose: 1.5 mg/kg/injection, schedule: Q04DX004 (ip), vehicle: saline
  T/C: 127, 131, 137 % of control
dose: 1.56 mg/kg/injection, schedule: Q04DX002 (ip), vehicle: saline
  survivor count: 3 of 3
dose: 1.6 mg/kg/injection, schedule: Q01DX005 (ip), vehicle: saline
  survivor count: 0 of 6
dose: 1.6 mg/kg/injection, schedule: Q01DX005 (iv), vehicle: saline
  survivor count: 2 of 6
dose: 1.8 mg/kg/injection, schedule: Q01DX001 (ip), vehicle: saline
  T/C: 129 % of control
dose: 1.8 mg/kg/injection, schedule: Q04DX003 (ip), vehicle: saline, evaluated on day 30
  T/C: 121 % of control
dose: 1.8 mg/kg/injection, schedule: Q04DX003 (ip), vehicle: saline, evaluated on day 45
  T/C: 112, 113, 121, 122 % of control
dose: 2.3 mg/kg/injection, schedule: Q04DX002 (ip), vehicle: saline
  T/C: 110, 112 [2 of 2 alive], 122, 128 % of control
dose: 3.0 mg/kg/injection, schedule: Q01DX001 (ip), vehicle: water
  T/C: 128 % of control
dose: 3.0 mg/kg/injection, schedule: Q04DX004 (ip), vehicle: saline
  T/C: 132 % of control
dose: 3.13 mg/kg/injection, schedule: Q04DX002 (ip), vehicle: saline
  survivor count: 3 of 3
dose: 6.25 mg/kg/injection, schedule: Q04DX002 (ip), vehicle: saline
  survivor count: 3 of 3
dose: 6.5 mg/kg/injection, schedule: Q01DX001 (ip), vehicle: saline
  survivor count: 9 of 10
dose: 8.0 mg/kg/injection, schedule: Q01DX001 (ip), vehicle: saline
  survivor count: 10 of 10
dose: 12.5 mg/kg/injection, schedule: Q04DX002 (ip), vehicle: saline
  survivor count: 3 of 3
dose: 25.0 mg/kg/injection, schedule: Q04DX002 (ip), vehicle: saline
  survivor count: 1 of 3
dose: 50.0 mg/kg/injection, schedule: Q04DX002 (ip), vehicle: saline
  survivor count: 2 of 3
dose: 100.0 mg/kg/injection, schedule: Q04DX002 (ip), vehicle: saline
  survivor count: 0 of 3
dose: 200.0 mg/kg/injection, schedule: Q04DX002 (ip), vehicle: saline
  survivor count: 0 of 3
dose: 400.0 mg/kg/injection, schedule: Q04DX002 (ip), vehicle: saline
  survivor count: 0 of 3
